Data as given in PubChem BioAssay AID686938 (Drosophila RNAi Screening Center, 2013).

- Test: 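Looking for CRAC channel components and the factors controlling them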 (primary screen)
- Cells: Drosophila S2R+ cells
- Knock-down reagent: long dsRNA against Drosophila genes, about 0.25 µg dsRNA per well, roughly 10,000 cells
- Duration: 5 days of knock-down before the calcium assay
- Challenge: thapsigargin (SERCA pump blocker) to empty calcium stores; entry signal taken 4 min after adding it
- Read-out: 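Duplicate raw fluo-4 intensities per well from a plate reader, at rest and four minutes after thapsigargin emptied calcium stores; entry-to-rest ratio filled for only some wells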
- Scale: calcium entry signal: higher = stronger calcium signal after store depletion; entry to resting ratio: higher = more calcium entry relative to resting level; resting calcium signal: higher = higher resting calcium signal
- Units: calcium entry signal in fluorescence units; resting calcium signal in fluorescence units
- Active means: 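Hit if the duplicate-averaged plate z-score for entry over resting signal is under −3; wells with weak total dye signal (Fmax z < −2) or more than 5 off-targets removed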
- Meaning of the calls: active = strongly reduced calcium entry; inactive = no strong reduction
The screen tested about 23,000 reagents; shown is an unselected part of those that have a named target and a result. Of all reagents, 75 (0.33%) are marked active. 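Raw plate signals without normalisation; calls rest on plate z-scores that were not deposited; ratio present for only 364 wells.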 A plus sign joins genes that one reagent is predicted to hit. No sequences are given here. Not given: the dose of the treatment.

gene	dsRNA	calcium entry signal, replicate 1	calcium entry signal, replicate 2	entry to resting ratio	resting calcium signal, replicate 1	resting calcium signal, replicate 2	call
CG9399	DRSC16488	2.93e7	3.29e7		1.49e7	1.69e7	inactive
CG32264	DRSC08061	3.59e7	4.68e7		1.92e7	2.13e7	inactive
CG32264	DRSC08167	3.04e7	3.98e7		1.58e7	1.75e7	inactive
CG32264	DRSC08169	4.32e7	3.41e7		2.60e7	1.34e7	inactive
CG32264	DRSC08285	3.07e7	7.04e7		1.64e7	2.90e7	inactive
CG32264	DRSC08437	3.27e7	3.50e7		1.74e7	1.72e7	inactive
Obp99b	DRSC16264	4.25e7	4.56e7		2.18e7	2.13e7	inactive
CG18265	DRSC10310	4.29e7	6.45e7		2.02e7	2.83e7	inactive
cal1	DRSC15725	3.68e7	3.46e7		2.14e7	1.82e7	inactive
CG34452	DRSC09387	2.92e7	2.87e7		1.50e7	1.35e7	inactive
CG32813	DRSC17948	2.76e7	3.89e7	1.9	1.47e7	1.64e7	inactive
Ns4	DRSC03199	2.50e7			1.38e7		inactive
cold	DRSC00538	4.34e7			2.02e7		inactive
csw	DRSC18756	3.84e7	5.19e7	2.1	1.87e7	2.09e7	inactive
csw	DRSC23326	3.80e7	2.62e7		2.12e7	1.30e7	inactive
CG7737	DRSC07033	2.39e7	2.59e7		1.13e7	1.16e7	inactive

Looked up above:
CG18265 [DRSC10310], resting calcium signal, replicate 1 = 2.02e7
CG32264 [DRSC08167], calcium entry signal, replicate 2 → 3.98e7
Entry for CG34452 [DRSC09387] under “calcium entry signal, replicate 1”: 2.92e7
Result of CG32264 [DRSC08169] under “calcium entry signal, replicate 2”: 3.41e7
Under “resting calcium signal, replicate 1”, CG9399 [DRSC16488] is entered as 1.49e7
cal1 [DRSC15725], resting calcium signal, replicate 1: 2.14e7

Next records:
gene	dsRNA	calcium entry signal, replicate 1	calcium entry signal, replicate 2	entry to resting ratio	resting calcium signal, replicate 1	resting calcium signal, replicate 2	call
Sc2	DRSC08162	5.02e7	3.52e7		3.41e7	1.44e7	inactive
CG17198 + CG17197	DRSC15190	5.26e7	3.79e7		2.42e7	1.57e7	inactive
CG17198 + CG17197	DRSC15191	4.34e7	4.11e7		2.01e7	1.64e7	inactive
Gpo2	DRSC06822	5.90e7	4.68e7		2.53e7	1.71e7	inactive
CG33796	DRSC09417	3.23e7	2.33e7		1.68e7	1.24e7	inactive
eIF3c	DRSC06905	2.01e7	1.42e7		1.29e7	8.97e6	inactive
lost	DRSC12002	3.91e7	3.39e7		2.20e7	1.63e7	inactive
lost	DRSC12234	4.08e7	4.58e7		1.85e7	2.33e7	inactive
lost	DRSC21987	2.01e7	3.61e7		1.04e7	1.83e7	inactive
Mtl	DRSC16751	2.63e7	3.71e7		1.43e7	1.70e7	inactive
Trf2	DRSC18727	1.93e7	2.57e7		1.17e7	1.50e7	inactive
Nup214	DRSC04421	3.76e7			1.98e7		inactive
CG33460	DRSC05570	5.99e7	4.56e7		2.64e7	1.82e7	inactive
mRpL13	DRSC02076	4.12e7	4.03e7		1.87e7	1.58e7	inactive
CG10814	DRSC06004	2.41e7	2.92e7		1.07e7	1.32e7	inactive
CG14762	DRSC05073	3.32e7	5.95e7		1.63e7	2.62e7	inactive
CG14762	DRSC06496	4.18e7	4.21e7		2.02e7	2.04e7	inactive
st	DRSC11399	2.65e7	3.25e7		1.21e7	2.10e7	inactive
thoc5	DRSC04327	3.65e7			1.69e7		inactive
p38b	DRSC03586	4.59e7	2.64e7		2.07e7	1.37e7	inactive
betaNACtes3	DRSC20183	2.68e7	3.72e7		1.45e7	1.69e7	inactive
CG17597	DRSC02630	5.57e7			2.64e7		inactive
cdi	DRSC16922	2.95e7	2.47e7		1.47e7	1.23e7	inactive
CG15617	DRSC06570	5.50e7	4.45e7		2.72e7	1.90e7	inactive
